Measured values as given in PMC8083959.
Results are given in words; binding and its absence hold for the method and conditions named. For some assays here: Sequences can lack the tags named with a protein.

Experiments:
[1] = target: PDZD7 HHD (harmonin homology domain, a.a. 546–646) (Mus musculus) (UniProt E9Q9W7); assay: SEC-MALS; Superose 12 10/300 GL column, miniDAWN and Optilab detectors; samples loaded at 300 μl and 50 μM; both purified
[2] = target: Trx-tagged PDZD7 HHD-L wild type (HHD 508–646) (Mus musculus) (UniProt E9Q9W7); assay: as above

Binder | binding [1] | binding [2]
PDZD7 HHD (harmonin homology domain, a.a. 546–646) (domain or fragment, UniProt E9Q9W7 546-646) TVNEQVQAWESRRPLIQDLARRLLTDDEVLAVTRHCSRYVHEGGVEDLVRPLLAILDRPTKLLLLRDIRSVVAPTDLGRFDSMVMPVELEAFEALKSRAVG | no binding (tested: 50 μM) | 
Trx-tagged PDZD7 HHD-L wild type (HHD 508–646) (domain or fragment, UniProt E9Q9W7 508-646) AGSVGPVQKFVTWRLRRDRERGRALLSARSGSPSGQAPTVNEQVQAWESRRPLIQDLARRLLTDDEVLAVTRHCSRYVHEGGVEDLVRPLLAILDRPTKLLLLRDIRSVVAPTDLGRFDSMVMPVELEAFEALKSRAVG |  | no binding (tested: 50 μM)
